PubChem BioAssay AID743454 | Peter MacCallum Cancer Centre, 2014
The deposit covers about 18,000 reagents; this is an unselected part. Over the whole deposit, 450 (2.5%) got an active call. 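Single biological run; no consistent viability z cut-off exists, so the class columns, not z-scores, define the calls.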

Screen: 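Search for knock-downs that restore vorinostat killing in resistant colon cancer cells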 (primary screen)
Cell system: human HCT116-VR colon cancer cells, selected for vorinostat resistance
Knock-down reagent: siRNA pool against human genes, 40 nM siRNA pool
Time to read-out: vorinostat for 24 h, read-out about 72 h after transfection
Challenge: vorinostat at 2.5 µM final
Measurement: 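Cell viability by CellTiter-Fluor and caspase 3/7 activity by luminescence, each scaled to mock wells per plate, duplicates averaged, then robust z-scored over all plates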
Direction: viability robust z-score: higher = more viable cells than screen typical; caspase robust z-score: higher = more caspase 3/7 activity than screen typical
Call rule: 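a knock-down is a hit when classed RV1 or RV2 for lowered viability, or CA1 or CA2 for caspase activation; those lethal without drug were dropped; hits were retested singly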

SPRN (shadow of prion protein) [SID135625387] gave viability hit class no change; caspase hit class no change; viability robust z-score 0.26; caspase robust z-score 0.12; inactive. Silencing of MPL (MPL proto-oncogene, thrombopoietin receptor) [SID134310154] resulted in: viability hit class no change; caspase hit class no change; viability robust z-score 0.65; caspase robust z-score -0.7; inactive. Against GPR141 (G protein-coupled receptor 141) [SID134310987], the values are viability hit class no change; caspase hit class no change; viability robust z-score 1.13; caspase robust z-score -1; inactive. Depletion of TOP1 (DNA topoisomerase I) [SID134310847] came out at: viability hit class no change; caspase hit class no change; viability robust z-score 0.49; caspase robust z-score -0.13; inactive. HEPACAM (hepatic and glial cell adhesion molecule) [SID152152327] gave viability hit class no change; caspase hit class no change; viability robust z-score -0.46; caspase robust z-score -0.57; inactive. With knock-down of TMEFF2 [SID134315147], the screen gave viability hit class no change; caspase hit class no change; viability robust z-score 0.05; caspase robust z-score 0.12; inactive.

With knock-down of CGB1 (chorionic gonadotropin subunit beta 1) [SID135622568], the screen gave viability hit class no change; caspase hit class no change; viability robust z-score 0.48; caspase robust z-score 0.19; inactive. Against RFTN2 (raftlin family member 2) [SID134320061], the entry reads viability hit class no change; caspase hit class no change; viability robust z-score 0.89; caspase robust z-score -0.49; inactive. Against CBR1 (carbonyl reductase 1) [SID152156724] the deposit lists viability hit class no change; caspase hit class no change; viability robust z-score -1.32; caspase robust z-score 1.88; inactive.

Reformatted: entries from further up
{"target gene": "TMEFF2", "PubChem SID": "SID134315147", "viability hit class": "no change", "caspase hit class": "no change", "viability robust z-score": 0.05, "caspase robust z-score": 0.12, "Call": "inactive"}
{"target gene": "CGB1 (chorionic gonadotropin subunit beta 1)", "PubChem SID": "SID135622568", "viability hit class": "no change", "caspase hit class": "no change", "viability robust z-score": 0.48, "caspase robust z-score": 0.19, "Call": "inactive"}
{"target gene": "RFTN2 (raftlin family member 2)", "PubChem SID": "SID134320061", "viability hit class": "no change", "caspase hit class": "no change", "viability robust z-score": 0.89, "caspase robust z-score": -0.49, "Call": "inactive"}

Additional results:
UBE2L6 (ubiquitin conjugating enzyme E2 L6) [SID135621596] scored viability hit class no change; caspase hit class no change; viability robust z-score 1.12; caspase robust z-score -1.02; inactive. INTS9 (integrator complex subunit 9) [SID134324000] showed viability hit class no change; caspase hit class no change; viability robust z-score -0.77; caspase robust z-score 2.17; inactive. Silencing of TK1 (thymidine kinase 1) [SID152150808] came out at: viability hit class no change; caspase hit class no change; viability robust z-score 0.08; caspase robust z-score 1.64; inactive. Depletion of PDXP (pyridoxal phosphatase) [SID152155861] gave: viability hit class no change; caspase hit class no change; viability robust z-score 0.22; caspase robust z-score 1.28; inactive. Depletion of NXPH4 (neurexophilin 4) [SID152152959] gave: viability hit class no change; caspase hit class no change; viability robust z-score 0.74; caspase robust z-score 0.08; inactive. PLEK2 (pleckstrin 2) [SID134324493] gave viability hit class no change; caspase hit class no change; viability robust z-score -0.8; caspase robust z-score -0.01; inactive.

LILRA6 (leukocyte immunoglobulin like receptor A6) [SID135622720] showed viability hit class no change; caspase hit class no change; viability robust z-score 0.2; caspase robust z-score -0.22; inactive. For NAALAD2 (N-acetylated alpha-linked acidic dipeptidase 2) [SID152153695] the deposit lists viability hit class no change; caspase hit class no change; viability robust z-score 0.3; caspase robust z-score -0.32; inactive. For C2CD5 (C2 calcium dependent domain containing 5) [SID134318356], the values are viability hit class no change; caspase hit class no change; viability robust z-score 1.06; caspase robust z-score -0.99; inactive. Against CYP4F2 (cytochrome P450 family 4 subfamily F member 2) [SID134313951] the deposit lists viability hit class no change; caspase hit class no change; viability robust z-score -0.07; caspase robust z-score -0.41; inactive. ELOF1 (elongation factor 1) [SID152150802] scored viability hit class no change; caspase hit class no change; viability robust z-score -1.46; caspase robust z-score 4.08; inactive. SNX31 (sorting nexin 31) [SID134320033] showed viability hit class no change; caspase hit class no change; viability robust z-score -0.73; caspase robust z-score 1.92; inactive.

For TLDC2 (TBC/LysM-associated domain containing 2) [SID135625223], the entry reads viability hit class no change; caspase hit class no change; viability robust z-score 0.73; caspase robust z-score -0.08; inactive. ACADL (acyl-CoA dehydrogenase long chain) [SID134314551] showed viability hit class no change; caspase hit class no change; viability robust z-score -1.27; caspase robust z-score 4.82; inactive. With knock-down of GPR148 (G protein-coupled receptor 148) [SID152147909] the results were viability hit class no change; caspase hit class no change; viability robust z-score -1.1; caspase robust z-score 0.04; inactive. With knock-down of FBN2 (fibrillin 2) [SID152151823], the record shows viability hit class no change; caspase hit class no change; viability robust z-score -0.36; caspase robust z-score -1.23; inactive. SYN1 (synapsin I) [SID152147149] gave viability hit class no change; caspase hit class no change; viability robust z-score -0.12; caspase robust z-score -0.68; inactive. Depletion of OR14C36 (olfactory receptor family 14 subfamily C member 36) [SID152151454] gave: viability hit class no change; caspase hit class no change; viability robust z-score 0.48; caspase robust z-score -0.04; inactive.
